Values from PubChem BioAssay AID504786 (Drosophila RNAi Screening Center, 2011)

Purpose: 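Knock-downs reducing HIF reporter induction by the iron chelator DFO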 (primary screen)
Cells: Drosophila S2 cells with a stable HIF luciferase reporter
Reagents: long dsRNA against Drosophila genes, about 0.2 µg dsRNA per well of a 384-well plate
Duration: three days of knock-down, then 20 h of DFO before reading
Conditions: desferrioxamine (DFO) at 100 µM, an iron chelator that mimics hypoxia, for 20 h
Detection: 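Firefly luciferase driven by the mouse ldh-a hypoxia-response element, measured after 20 h of 100 µM DFO; z-scores per plate, higher means more signal lost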
Direction: z-score: higher = stronger loss of HIF reporter signal
In all, the deposit lists about 21,000 reagents; below is a random part of those that have a named target and a result. 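Primary screen; positive scores mean lost reporter signal, so the sign may be inverted from the usual convention.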 Names joined by + are all predicted targets of the reagent.

no.	Gene	amplicon	z-score, replicate 1	z-score, replicate 2	z-score, replicate 3	z-score, replicate 4
1	CR42546 (pseudo)	DRSC03711	-0.2	-0.2		
2	CG7369	DRSC11822	-0.3	-0.1	0.4	-0.1
3	CG10747	DRSC02104	-0.3	-0.4		
4	CG12278	DRSC14494	2.9	0.9		
5	CG4712	DRSC06882	-0.1	-0.6		
6	CG10089	DRSC09694	0.1	-0.2		
7	CG10089	DRSC09695	-0.1	-0.2		
8	Rai1 (Rat1 Interacting Protein 1)	DRSC20157	-0.3	-0.8		
9	CG13991	DRSC02323	-0.4	-0.3		
10	Cpr65Aw (Cuticular protein 65Aw)	DRSC08794	0.5	-0.3		
11	CG11125	DRSC06042	-0.2	-0.4		
12	CG11099	DRSC06034	-0.2	-0.1		
13	kraken	DRSC00824	-0.2	-0.3		
14	mil (milkah)	DRSC15696	-0.2	-0.7		
15	drd (drop dead)	DRSC19343	-0.3	-0.8		

3 entries from above, ordered by “z-score, replicate 1”, high to low:
Gene	amplicon	z-score, replicate 1	z-score, replicate 2	z-score, replicate 3	z-score, replicate 4
Cpr65Aw (Cuticular protein 65Aw)	DRSC08794	0.5	-0.3		
CG11125	DRSC06042	-0.2	-0.4		
CG11099	DRSC06034	-0.2	-0.1		

More reagents:
no.	Gene	amplicon	z-score, replicate 1	z-score, replicate 2	z-score, replicate 3	z-score, replicate 4
16	CG11737	DRSC14364	-0.2	-1.1		
17	CG32625	DRSC18994	-0.1	0		
18	CG6362	DRSC07413	-0.2	-0.1		
19	E(spl)m2-BFM (Enhancer of split m2, Bearded family member)	DRSC16991	-0.7	-0.5		
20	CG18420	DRSC01954	-0.4	-0.5		
21	NfI (Nuclear factor I)	DRSC17158	-0.3	-0.1		
22	Tfb4 (Transcription factor B4)	DRSC00675	-0.2	-0.7		
23	RpS3 (Ribosomal protein S3)	DRSC16838	5.3	6.2		
24	CG30109 + CG30108	DRSC05674	0.1	-0.3		
25	CG11164	DRSC19392	-0.1	0		
26	mei-P26 (meiotic P26)	DRSC17735	2.6	3.8		
27	sad (shadow)	DRSC16630	-0.4	-1		
28	Or30a (Odorant receptor 30a)	DRSC03385	-0.4	0.1		
29	CG11298	DRSC04100	-0.4	-0.1		
30	CG13794	DRSC02298	-0.2	-0.2		
31	lbm (late bloomer)	DRSC07643	0.1	0.1		
32	CG12641 (retired record)	DRSC17848	1.8	2.2		
33	CR42785 (pseudo)	DRSC04962	-0.1	-0.1		
34	nrv2 (nervana 2)	DRSC00948	-0.5	-0.3		
35	nrv2 (nervana 2)	DRSC03383	-0.2	0		
